# According to patent publication US10047035B2, “Process for continuously preparing di-C1-3-alkyl succinates” (BASF SE, priority 2013, dated 2018):
# At least one structure is not confirmed: it was looked up by name or label, or the drawing left a doubt.
# Assay: Decomposition of monomethyl succinate on heating (Example 3)
# Assay type: physicochemical
# Conditions: heated at 180° C. for 21 h
structure (smiles),measurement,setting,value
"COC(=O)CCC(=O)O [MMS, Monomethyl Succinate]",SA content of the liquid after heating,,15.6 wt-%
same,second component of the liquid after heating (printed MMS),,23.4 wt-%
same,MMS content of the liquid after heating,starting content 93.6 wt-%,49.5 wt-%
